Experimental data from publication PMC9464236, “Biochemical characterization of a disease-causing human osteoprotegerin variant” (Scientific Reports, 2022).

Sequences of proteins named here, by UniProt entry; tags and fusion partners are left off. A change or cut given only in a name is not applied to a line headed by its entry.
UniProt O35235: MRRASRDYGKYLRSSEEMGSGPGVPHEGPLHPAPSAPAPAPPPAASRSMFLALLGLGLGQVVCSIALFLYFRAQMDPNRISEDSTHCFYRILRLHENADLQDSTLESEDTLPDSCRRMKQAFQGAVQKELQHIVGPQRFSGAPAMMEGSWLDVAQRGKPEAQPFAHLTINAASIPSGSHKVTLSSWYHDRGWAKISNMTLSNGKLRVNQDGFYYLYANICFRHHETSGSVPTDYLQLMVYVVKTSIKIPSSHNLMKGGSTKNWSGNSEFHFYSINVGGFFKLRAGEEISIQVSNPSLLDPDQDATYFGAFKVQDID

B1: wildtype human osteoprotegerin (WT OPG) (receptor, UniProt O00300 22-401, looked up)
chain: ETFPPKYLHYDEETSHQLLCDKCPPGTYLKQHCTAKWKTVCAPCPDHYYTDSWHTSDECLYCSPVCKELQYVKQECNRTHNRVCECKEGRYLEIEFCLKHRSCPPGFGVVQAGTPERNTVCKRCPDGFFSNETSSKAPCRKHTNCSVFGLLLTQKGNATHDNICSGNSESTQKCGIDVTLCEEAFFRFAVPTKFTPNWLSVLVDNLPGTKVNAESVERIKRQHSSQEQTFQLLKLWKHQNKDQDIVKKIIQDIDLCENSVQRHIGHANLTFEQLRSLMESLPGKKVGAEDIEKTIKACKPSDQILKLLSLWRIKNGDQDTLKGLMHALKHSKTYHFPKTVTQSLKKTIRFLHSFTMYKLYQKLFLEMIGNQVQSVKISCL
notes: Osteoprotegerin (OPG, TNFRSF11B), human; complete open reading frame of full-length human OPG in pcDNA3.4-TOPO; stop codon at position 402; Disulfide-linked dimer; assays used the SEC-purified dimer; also called WT hOPG; hOPG; source: 293-freestyle cells, transiently transfected; purified from medium (heparin Sepharose, Superdex 200)
B2: human osteoprotegerin Stop402Leu mutant with a 19-residue C-terminal appendage (OPG^+19) (receptor)
chain: ETFPPKYLHYDEETSHQLLCDKCPPGTYLKQHCTAKWKTVCAPCPDHYYTDSWHTSDECLYCSPVCKELQYVKQECNRTHNRVCECKEGRYLEIEFCLKHRSCPPGFGVVQAGTPERNTVCKRCPDGFFSNETSSKAPCRKHTNCSVFGLLLTQKGNATHDNICSGNSESTQKCGIDVTLCEEAFFRFAVPTKFTPNWLSVLVDNLPGTKVNAESVERIKRQHSSQEQTFQLLKLWKHQNKDQDIVKKIIQDIDLCENSVQRHIGHANLTFEQLRSLMESLPGKKVGAEDIEKTIKACKPSDQILKLLSLWRIKNGDQDTLKGLMHALKHSKTYHFPKTVTQSLKKTIRFLHSFTMYKLYQKLFLEMIGNQVQSVKISCLLLEMAIELFPHNWRDPMDE
notes: Osteoprotegerin (OPG, TNFRSF11B), human; complete open reading frame, residues up to 401, followed by the read-through appendage; 19-residue appendage 402-420 made by read-through of the mutated stop codon (Stop402Leu); Secreted; Mixture of higher-order oligomers; also called mutant hOPG; mutant OPG; source: 293-freestyle cells, transiently transfected; purified from medium (heparin Sepharose, …)

Target: recombinant soluble RANKL (sRANKL) (UniProt O35235)
Assay: ELISA; plate coated with recombinant sRANKL, blocked with 1% BSA; OPG at 1 to 1000 ng/ml for 2 h; biotinylated rabbit anti-OPG, streptavidin-HRP; apparent Kd; both purified

Binder | binding
B1 | binds
B2 | binds

No constants are given. Whether binding was seen depends on the method and setting. Binding calls can cover weak binding; strength is not graded here.
